Experimental data from patent publication US20110021572A1, “FUNGICIDE HYDROXIMOYL-TETRAZOLE DERIVATIVES” (priority 2008, published 2011).
Some entries share one result that the patent states for a list of compounds.

Test system: Pythium aphanidermatum
Experiment: In vitro-test for the calculation of the ED50-value with Pythium aphanidermatum
Assay type: cell-based
Details: microtitre plate, liquid potato dextrose medium, 3-5 days at 20° C., extinction at 620 nm

Row | Compound | ED50-value (50% growth inhibition)
1 | Cn1nnnc1C(=NOCc1ncccc1N1C(=O)c2ccccc2C1=O)c1ccccc1 [Example 13, 2-{2-[({[(1-methyl-1H-tetrazol-5-yl)(phenyl)methylene]amino}oxy)methyl]pyridin-3-yl}-1H-isoindole-1,3(2H)-dione] | lower than 1 ppm
2 | CCCCCOC(=O)Nc1cccnc1CON=C(c1ccccc1)c1nnnn1C [Example 2, pentyl {2-[({[(1-methyl-1H-tetrazol-5-yl)(phenyl)methylene]amino}oxy)methyl]pyridin-3-yl}carbamate] | lower than 1 ppm
